# Assay results: the supplement of paper PMC7411640
# Counter-ions that a name gives are not always drawn. The list shows a part of the results. Single values are uncertain here, since repeats match poorly.
# Test system: MDA-MB-468
# Assay: phospho-S6 immunofluorescence (DAPI-normalised), per-plate z-score; higher = higher phospho-S6 signal (less pathway suppression)
# Conditions: compound 1 µM; co-treatment: vehicle; 24 h
# Procedure: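 GPCR-targeted compound library (MedChemExpress HY-L006) tested on MDA-MB-468 PTEN-null TNBC cells in 384-well plates at 0.1, 1 or 10 uM, combined with vehicle, GDC0941 450 nM or lapatinib 1 uM, for 24 h. Phospho-S6 (S240/244) immunofluorescence normalised to DAPI and expressed as a per-plate z-score; values are the mean of biological triplicates.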
row,SMILES,phospho-S6 immunofluorescence (z-score)
1,CCNC(=O)[C@H]1O[C@@H](n2cnc3c(N)nc(NCCc4ccc(CCC(=O)O)cc4)nc32)[C@H](O)[C@@H]1O,0.13
2,CC(C)(Cc1ccc2ccccc2c1)NC[C@@H](O)COc1cccc(Cl)c1C#N,-1.49
3,CC(C)(Cc1ccc2ccccc2c1)NC[C@@H](O)COc1cccc(Cl)c1C#N [NPS-2143 (hydrochloride)],-12.7
4,CC(C)N(CCCCOCC(=O)NS(C)(=O)=O)c1cnc(-c2ccccc2)c(-c2ccccc2)n1,-0.38
5,O=C(O[C@@H]1C[C@@H]2C[C@H]3C[C@H](C1)N2CC3=O)c1c[nH]c2ccccc12 [Dolasetron],-0.71
6,CC(C)(C)NCC(O)c1cc(O)cc(O)c1 (configuration not stated) [Terbutaline (sulfate)],0.87
7,COc1cc(NC(=O)c2ccccn2)ccc1Cl,0.91
8,C[C@@H](NCCCc1cccc(C(F)(F)F)c1)c1cccc2ccccc12 [Cinacalcet (hydrochloride)],-0.7
9,Cc1cc2c(cc1Cl)N(C(=O)Nc1ccc(Oc3cccnc3C)nc1)CC2,0.09
10,NC(=O)CC[C@H](N)C(=O)O [L-Glutamine],0.47
11,O=C(c1ccc(F)cc1)N1CCC[C@H](c2nc(-c3ccc(F)cc3)no2)C1,0.26
12,O=C1O[C@]2(CC[C@H](C(=O)Nc3ccn(-c4ccccc4F)n3)CC2)c2cnccc21,0

# Same assay, conditions: compound 10 µM; co-treatment: GDC0941 450 nM; 24 h
row,SMILES,phospho-S6 immunofluorescence (z-score)
1,CCOC(=O)N[C@@H]1CC[C@@H]2[C@@H](C1)C[C@H]1C(=O)O[C@H](C)[C@H]1[C@H]2/C=C/c1ccc(-c2cccc(F)c2)cn1 [Vorapaxar],-5.92
2,CC(C)c1noc(N2CCC(COc3ccc(-c4ccc(S(C)(=O)=O)cc4)nc3)CC2)n1,-2.9
3,CC(C)NCC(O)COc1ccc(CCOCC2CC2)cc1 (configuration not stated) [Betaxolol (hydrochloride)],0.79
4,CC(C)NC[C@H](O)COc1ccc(CCOCC2CC2)cc1 [Levobetaxolol (hydrochloride)],-0.39
5,OC(CCN1CCCCC1)(c1ccccc1)C1CCCCC1 (configuration not stated) [Trihexyphenidyl (hydrochloride)],-0.3
6,Clc1cccc(COc2cncc(N3CCNCC3)n2)c1,-1.03
7,Cc1c(C(=O)NN2CCCCC2)nn(-c2ccc(Cl)cc2Cl)c1-c1ccc(Cl)cc1 [Rimonabant (Hydrochloride)],-3.49
8,CCOc1ccccc1OCCN[C@H](C)Cc1ccc(OC)c(S(N)(=O)=O)c1 [Tamsulosin],-1.32
9,CN(C)CCOC(C)(c1ccccc1)c1ccccn1 (configuration not stated) [Doxylamine (succinate)],0.33
10,COCCCN1CCC(NC(=O)c2cc(Cl)c(N)c3c2OCC3)CC1 [Prucalopride],0.54
11,Nc1nc(CC(=O)Nc2ccc(CCNC[C@H](O)c3ccccc3)cc2)cs1 [Mirabegron],0.91
12,CCNC(=O)[C@@H]1CCCN1C(=O)[C@H](CCCNC(=N)N)NC(=O)[C@H](CC(C)C)NC(=O)[C@@H](COC(C)(C)C)NC(=O)[C@H](Cc1ccc(O)cc1)NC(=O)[C@H](CO)NC(=O)[C@H](Cc1c[nH]c2ccccc12)NC(=O)[C@H](Cc1cnc[nH]1)NC(=O)[C@@H]1CCC(=O)N1 [Buserelin (Acetate)],0.78
13,CC(=O)Nc1cccc2c1c(Sc1ccc(Cl)cc1)c(C)n2CC(=O)O,0.52
14,COc1nc(C)nc(Cl)c1NC1=NCCN1 [Moxonidine],0.49
15,CC(COc1ccccc1)N(CCCl)Cc1ccccc1 (configuration not stated) [Phenoxybenzamine (hydrochloride)],0.33
16,CC(C)COc1ccc(CNC(=O)N(Cc2ccc(F)cc2)C2CCN(C)CC2)cc1 [Pimavanserin],-2.66
17,c1ccc2c(c1)OCC(CN1CCCCC1)O2 (configuration not stated) [Piperoxan (hydrochloride)],0.28
18,O=C(O[C@@H]1C[C@@H]2C[C@H]3C[C@H](C1)N2CC3=O)c1c[nH]c2ccccc12 [Dolasetron (Mesylate hydrate)],0.52
19,O=C1NCC2(CCN(CCc3ccccc3)CC2)O1 [Fenspiride (Hydrochloride)],0.59
20,CN(C)CCc1c[nH]c2ccc(C[C@H]3COC(=O)N3)cc12 [Zolmitriptan],0.87

row,SMILES,phospho-S6 immunofluorescence (z-score)
1,Clc1ccc2c(c1)CCc1cccnc1C2=C1CCNCC1 [Desloratadine],-0.48
2,COc1cc2c(cc1OC)CN(C(=O)[C@@H](NCc1ccncc1)C(C)(C)C)CC2,0.85
3,CN1CCCC(n2nc(Cc3ccc(Cl)cc3)c3ccccc3c2=O)CC1 (configuration not stated) [Azelastine (hydrochloride)],0.6
4,CNC(=C[N+](=O)[O-])NCCSCc1csc(CN(C)C)n1 [Nizatidine],-1.38
5,CN(C)CCN1C(=O)c2cccc3cc(NC(N)=O)cc(c23)C1=O,1.29
6,CN1CCN(C2=Nc3ccccc3Oc3ccc(Cl)cc32)CC1 [Loxapine (succinate)],0.7
7,CCOc1nc2cccc(C(=O)OC(C)OC(=O)OC3CCCCC3)c2n1Cc1ccc(-c2ccccc2-c2nn[nH]n2)cc1 (configuration not stated) [Candesartan (Cilexetil)],-1.58
8,Cc1nc2n(c(=O)c1CCN1CCC(c3noc4cc(F)ccc34)CC1)CCCC2O (configuration not stated) [Paliperidone],0.37
9,CCNC(=O)[C@H]1O[C@@H](n2cnc3c(N)nc(NCCc4ccc(CCC(=O)O)cc4)nc32)[C@H](O)[C@@H]1O,0.05
10,CC(C)(Cc1ccc2ccccc2c1)NC[C@@H](O)COc1cccc(Cl)c1C#N,-3.37
11,CC(C)(Cc1ccc2ccccc2c1)NC[C@@H](O)COc1cccc(Cl)c1C#N [NPS-2143 (hydrochloride)],-6
12,CC(C)N(CCCCOCC(=O)NS(C)(=O)=O)c1cnc(-c2ccccc2)c(-c2ccccc2)n1,0.87
13,O=C(O[C@@H]1C[C@@H]2C[C@H]3C[C@H](C1)N2CC3=O)c1c[nH]c2ccccc12 [Dolasetron],-0.34
14,CC(C)(C)NCC(O)c1cc(O)cc(O)c1 (configuration not stated) [Terbutaline (sulfate)],0.52
15,COc1cc(NC(=O)c2ccccn2)ccc1Cl,-0.65
16,C[C@@H](NCCCc1cccc(C(F)(F)F)c1)c1cccc2ccccc12 [Cinacalcet (hydrochloride)],-5.88
17,Cc1cc2c(cc1Cl)N(C(=O)Nc1ccc(Oc3cccnc3C)nc1)CC2,-3.98
18,NC(=O)CC[C@H](N)C(=O)O [L-Glutamine],-0.23
19,O=C(c1ccc(F)cc1)N1CCC[C@H](c2nc(-c3ccc(F)cc3)no2)C1,-2.64
20,O=C1O[C@]2(CC[C@H](C(=O)Nc3ccn(-c4ccccc4F)n3)CC2)c2cnccc21,0.73
